99 compounds from PubChem BioAssay AID651660 (Broad Institute, 2012) can be followed below.

Amino acid sequences for entries named in this document (tags omitted). A change or cut given only in a name is not applied to a line headed by its entry.
UniProt P43351: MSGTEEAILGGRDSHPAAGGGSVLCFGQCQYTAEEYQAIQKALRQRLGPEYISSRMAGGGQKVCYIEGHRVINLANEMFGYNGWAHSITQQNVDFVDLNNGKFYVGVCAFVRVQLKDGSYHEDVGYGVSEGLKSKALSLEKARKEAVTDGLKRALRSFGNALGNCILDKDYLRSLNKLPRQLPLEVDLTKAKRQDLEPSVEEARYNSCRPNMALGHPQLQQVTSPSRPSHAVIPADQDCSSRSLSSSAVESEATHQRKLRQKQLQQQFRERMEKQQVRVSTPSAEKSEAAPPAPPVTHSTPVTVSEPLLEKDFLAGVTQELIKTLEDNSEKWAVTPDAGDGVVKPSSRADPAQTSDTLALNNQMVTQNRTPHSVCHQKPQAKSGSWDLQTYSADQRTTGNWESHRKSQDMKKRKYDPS

The whole screen tested about 1,900 compounds, of which about 15 (0.8%) were called active.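 The calls were made as follows: active = every replicate shows at least 50% inhibition; inconclusive = mean inhibition at least 50% but some replicate below; inactive = the rest.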 The list shows a part of the results.

Usually inhibition stands for the change of the read-out against control, counted positive when it falls.

For the test, the target named is DNA repair protein RAD52 homolog (Homo sapiens) (UniProt P43351). Nature of the test: RAD52 ssDNA annealing inhibitors, primary screen, biochemical, FRET, single point (AID 651660).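 Also: 0% = median of neutral control wells and 100% = median of positive control wells.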 The note with it: Recombinant RAD52 ssDNA annealing, FRET fluorescence, 30 min; at 18.7 µM; stronger effect = higher value.
Turning to `CC(C)COc1ccc(Cc2cnc(N)nc2N)cc1`, the inhibition is inactive: 11.8%.

As for `CCN(CC)C(=O)N1CCN(C)CC1`, the inhibition is inactive: -10.1%.

With `O=C1CCCN1C(=O)CCC(=O)N1CCCC1=O`, the inhibition was inactive: 5.72%.

As for `COc1ccc(C2NC(=O)c3ccccc3O2)c(OC)c1OC` (centres undefined), the inhibition is inactive: -1.29%.

On to `O=C(CC(NC(=O)OCc1ccccc1)C(=O)O)OCc1ccccc1` (centres undefined), for which the inhibition is inactive: -2.85%.

In the case of `Cc1cccc2c(C(=O)O)cc(-c3cccnc3)nc12`, the inhibition was inactive: -3.93%.

On to `COC(=O)C1=C(C)N(Cc2ccco2)C(=O)/C1=C\c1ccc([N+](=O)[O-])cc1`, for which the inhibition was inactive: -17.8%.

`CC(C)(C)C(=O)NC(=S)Nc1sc2c(c1C(N)=O)CCC2`: the inhibition is inactive: -18.1%.

For the compound `Cc1ccc(S(=O)(=O)N[C@@H](C)C(=O)N2CCC(C(=O)N3CCC[C@H]3C(=O)O)CC2)cc1`, the inhibition was inactive: -7.39%.

Turning to `CCOC(=O)C1C(=O)OC(C)(C)C1C(C)C(=O)c1ccc(C)cc1` (centres undefined), the inhibition was inactive: -1.73%.

Take `CC1(C)CC(=O)C(C(=O)CCCCC(=O)C2C(=O)CC(C)(C)CC2=O)C(=O)C1`: the inhibition was inactive: -11.5%.

As to `O=C(Cc1cccc2ccccc12)N1CC[C@@]2(O)CCCC[C@H]2C1`, the inhibition is inactive: -0.364%.

As for `CCOC(=O)c1ccccc1NC(=O)c1ccc(F)cc1`, the inhibition is inactive: 18.1%.

For `OCC(O)CN1CCN(c2ccccc2)CC1` (centres undefined), the inhibition was inactive: -2.28%.

Consider `CC(C)C[C@H](NC(=O)NC(C)C)C(=O)O`, for which the inhibition was inactive: -9.64%.

Turning to `CN(C)CCC(c1ccc(Cl)cc1)c1ccccn1` (centres undefined), the inhibition is inactive: -8.82%.

For `COc1ccc(-c2coc3cc(O)cc(O)c3c2=O)cc1`, the inhibition was inactive: 8.53%.

As to `O=C(CC1(O)C(=O)Nc2ccccc21)c1ccccc1O` (centres undefined), the inhibition was inactive: -5.15%.

Turning to `COc1ccc(C(=O)c2oc3ccc(Br)cc3c2NC(C)=O)cc1`, the inhibition is inactive: -7.64%.

Take `COc1ccccc1C1C(C#N)=C(N)Oc2c1oc(CO)cc2=O` (centres undefined): the inhibition was inactive: -33.9%.

Take `Cc1ccc(NC(=O)CSc2nc(O)c(Cc3ccccc3)c(=O)n2-c2ccccc2)cc1`: the inhibition was inactive: -2.81%.

In the case of `COCCCN1C(=O)C(=O)/C(=C(/O)c2ccc3c(c2)CC(C)O3)C1c1cccnc1` (centres undefined), the inhibition was inactive: -3.72%.

As to `COc1ccc2cc(C(=O)Nc3ccc(S(N)(=O)=O)cc3)sc(=O)c2c1OC`, the inhibition was inactive: 0.252%.

Take `CSc1ccc(CN2CCN(CCC(C)C)C(CCO)C2)cc1` (centres undefined): the inhibition is inactive: -3.32%.

Take `Cc1nc(N)nc2c1CCCC2`: the inhibition is inactive: -8.16%.

As for `CC[n+]1c(C)sc2cc(C)ccc21`, the inhibition is inactive: -6.23%.

Turning to `CCc1cc(=O)oc2cc3occ(-c4ccc(OC)c(F)c4)c3cc12`, the inhibition was inactive: 12%.

In the case of `Cc1ccc(SCC(=O)Nc2nccs2)cc1`, the inhibition is inactive: -1.33%.

`COc1ccc(CCN(C)Cc2nc(Cc3ccc(OC)c(OC)c3)no2)cc1OC`: the inhibition is inactive: 4.97%.

Turning to `Nc1nc2c(nc(SCc3ccccc3Br)n2C2OC(CO)C(O)C2O)c(=O)[nH]1` (centres undefined), the inhibition was inactive: -3.43%.

As to `COc1cc(C(=S)N(C)C)ccc1O`, the inhibition was inactive: 4.11%.

Turning to `CCn1c(N2CCN(CC(=O)c3c(C)n(C)c4ccc(OC)cc34)CC2)nc2c1c(=O)[nH]c(=O)n2C`, the inhibition is inactive: -1.17%.

For the compound `CCOc1cc2c3c(c1)C(C)=CC(C)(C)N3C(=O)C2=O`, the inhibition is inactive: 0.854%.

As for `COCc1cc(=O)[nH]c(/N=C(\N)Nc2ccc(Oc3ccccc3)cc2)n1`, the inhibition was inactive: 1.27%.

For `N/C(=N\OC(=O)CCCOc1ccc(Cl)cc1Cl)c1ccncc1`, the inhibition was inactive: 3.38%.

As to `Cc1ccc2c(c1)OC(=O)CC2c1ccccc1` (centres undefined), the inhibition was inactive: 2.54%.

On to `C#CCOc1ccc2c(C)cc(=O)oc2c1`, for which the inhibition was inactive: -7.13%.

As for `CC1(C)CC(=O)C(C2=NC(C)(C)Cc3ccccc32)=C(O)C1`, the inhibition is inactive: -2.42%.

In the case of `O=C1CCCCCN1Cc1ccccc1`, the inhibition is inactive: 5.73%.

As to `C/C(=N/N1CCN(Cc2cccc3ccccc23)CC1)c1cccnc1`, the inhibition was inactive: -3.97%.

For `Cc1cccc(Nc2ncccc2C(=O)O)c1C`, the inhibition was inactive: -1.67%.

As for `CS(=O)(=O)NCc1ccc(C(=O)NCc2ccccc2)cc1`, the inhibition was inactive: -8.87%.

As for `COc1cccc(N2C(=O)[C@H]3C(C(=O)c4cnccn4)=NN[C@H]3C2=O)c1`, the inhibition is inactive: -43.3%.

In the case of `COc1ccc(CNC(=O)N[C@H](C(=O)O)C(C)C)cc1OC`, the inhibition was inactive: 0.684%.

For `CC1(C)CC(CC(=O)Nc2nccs2)(c2ccccc2)CCO1` (centres undefined), the inhibition was inactive: 5.39%.

Take `O=C(NCC1CCCCN1)c1cc(OCC(F)(F)F)ccc1OCC(F)(F)F` (centres undefined): the inhibition was inactive: 3.51%.

For `CC1CCc2cc(F)cc3c(=O)c(C(=O)O)cn1c23` (centres undefined), the inhibition was inactive: -9.95%.

For `CC(=O)c1c[nH]c2ccc(C)cc2c1=O`, the inhibition is inactive: 0.272%.

Regarding `COc1ccccc1C(=O)N=C1NC(=O)CC2C(=O)NCCN12` (centres undefined), the inhibition is inactive: 10.2%.

On to `COc1cc2ccc(=O)oc2c(O)c1OCC=C(C)C`, for which the inhibition was inactive: -2.16%.

As for `CCCCOc1ccc(OCCCN2CCOCC2)cc1`, the inhibition was inactive: 1.51%.

For the compound `CCOC(=O)C1=C(C)NC(C)=C(C(=O)OC)C1c1cccc([N+](=O)[O-])c1` (centres undefined), the inhibition was inactive: 6.01%.

On to `CC(=Nc1ccccc1)C1=C(O)CCCC1=O`, for which the inhibition was inactive: 3.08%.

As to `O=c1c(C(c2ccccc2)c2c(O)sc3ccccc3c2=O)c(O)sc2ccccc12`, the inhibition was inactive: -3.03%.

On to `CN(CCc1cnn(C)c1)Cc1nc(CC2CC2)no1`, for which the inhibition is inactive: -137%.

Take `Cc1ccc(N2C(=O)c3ccccc3C2=O)cc1C`: the inhibition was inactive: 3.63%.

As for `CCOC(=O)c1ccc2[nH]c(C)c(CCC(C)=O)c(=O)c2c1`, the inhibition is inactive: 0.469%.

Consider `O=C(NCCc1c[nH]c2ccccc12)OCCSS(=O)(=O)O`, for which the inhibition is inactive: -13.4%.

As to `Cc1ccc(C(=O)O)cc1NC(=O)c1cccs1`, the inhibition was inactive: 6.07%.

Consider `CC1(C)CC(=O)c2cn3c(nc2C1)nc1ccccc13`, for which the inhibition is inactive: -4.04%.

On to `O=C(Cc1ccccc1[N+](=O)[O-])NCc1ccncc1`, for which the inhibition is inactive: 2.84%.

Turning to `Cc1ccc(OCCSc2ncccn2)c(C)c1`, the inhibition was inactive: -5.16%.

With `CCOC(=O)c1c(O)c2c([nH]c1=O)CCCC2`, the inhibition was inactive: 2.81%.

As for `CC(CN1c2ccccc2Sc2ccccc21)N(C)C` (centres undefined), the inhibition is inactive: 7.73%.

For the compound `COc1ccc(NC(=O)N2CCCCC2c2cccnc2)cc1` (centres undefined), the inhibition was inactive: -0.869%.

As for `O=C(N/C(=C/C=C\c1ccccc1)C(=O)N1CCOCC1)c1ccc(Br)cc1`, the inhibition was inactive: 8.04%.

As to `COc1ccc([C@H]2[C@H](C(=O)OC(C)(C)C)N3N=Cc4ccccc4C3C23C(=O)c2ccccc2C3=O)cc1OC` (some centres undefined), the inhibition was inactive: -30.8%.

In the case of `NS(=O)(=O)c1cc2c(cc1C(F)(F)F)NC(Cc1ccccc1)NS2(=O)=O` (centres undefined), the inhibition was inactive: 1.98%.

Regarding `CC12COC3(C(=O)Nc4ccc(F)cc4)CC1CCC32C` (centres undefined), the inhibition is inactive: 5.41%.

Turning to `COc1cc(NS(=O)(=O)c2ccc(N)cc2)nc(OC)n1`, the inhibition is inactive: -8.35%.

In the case of `O=C(O)c1cc(-c2ccc3c(c2)OCO3)nc2ccc(Br)cc12`, the inhibition was inactive: -5.53%.

Regarding `O=Cc1ccc(N2CCCCC2)cc1`, the inhibition is inactive: -4.33%.

For `C[C@]12CC[C@H]3[C@@H](CCC4=CC(=O)CC[C@@]43C)[C@@H]1CC[C@@H]2C(=O)CO`, the inhibition was inactive: -7.7%.

In the case of `COc1cc(C=NCC2OCCc3ccccc32)cc(OC)c1` (centres undefined), the inhibition was inactive: 3.58%.

Turning to `CCOC(=O)c1ccc(N2C(=O)C(CC(=O)NC)N(CCc3ccc(OC)c(OC)c3)C2=S)cc1` (centres undefined), the inhibition was inactive: 0.676%.

With `O=C(c1ccco1)N1CCCN(Cc2nc(-c3ccc4c(c3)OCO4)no2)CC1`, the inhibition was inactive: -1.64%.

`CC(C)c1ccc(OCc2ccc(C(=O)O)o2)cc1`: the inhibition is inactive: -17.6%.

Regarding `NC(=O)N1c2ccccc2CC(=O)c2ccccc21`, the inhibition was inactive: -21.3%.

Regarding `CCOC(=O)c1ccc(NC(=S)NCCc2ccccc2F)cc1`, the inhibition was inactive: -3.96%.

In the case of `CC12CCC(C(=O)N3CCc4ccccc43)(CC1=O)C2(C)C` (centres undefined), the inhibition is inactive: -15.9%.

Regarding `CC12CCC(C(=O)Nc3ccccc3Br)(C/C1=N\O)C2(C)C` (centres undefined), the inhibition was inactive: -2.53%.

As for `COc1ccc2cc(C3(C)NC(=O)NC3=O)ccc2c1` (centres undefined), the inhibition is inactive: 13.1%.

As to `Clc1ccc2c(c1)[C@H]1OCC[C@H]1[C@@H](c1ccco1)N2`, the inhibition was inactive: -28%.

In the case of `Cc1ccccc1OCCSc1nc2ncnc(N)c2[nH]1`, the inhibition is inactive: 0.171%.

Consider `COc1ccc2nc(S(=O)Cc3ncc(C)c(OC)c3C)[nH]c2c1` (centres undefined), for which the inhibition was inactive: 5.21%.

Consider `O=c1cc(CN2CCN(c3cccc(Cl)c3)CC2)c2cc(O)c(-c3ccccc3)cc2o1`, for which the inhibition was inactive: -53.6%.

Consider `COc1ccc2oc(=O)c(-c3nc(C)cs3)cc2c1`, for which the inhibition was inactive: -14.6%.

For `O=CNC1CCCc2c1[nH]c1ccc(Cl)cc21` (centres undefined), the inhibition was inactive: 4.12%.

`CCCC(=O)O[C@]1(C(=O)CO)CC[C@H]2[C@@H]3CCC4=CC(=O)CC[C@]4(C)[C@H]3[C@@H](O)C[C@@]21C`: the inhibition is inactive: -6.55%.

For the compound `CC(C)C(=O)Nc1ccc2c3c(cccc13)CC2`, the inhibition is inactive: -4.24%.

For `COc1cc2c(cc1OC)C1(CCCCC1)CN(C)C2`, the inhibition is inactive: 1.04%.

For the compound `O=c1[nH]c(=O)n([C@H]2C[C@H](O)[C@@H](CO)O2)cc1C(F)(F)F`, the inhibition was inactive: -2.85%.

Regarding `CCCCCCCCNC(C)C(O)c1ccc(SC(C)C)cc1` (centres undefined), the inhibition is inactive: 24.6%.

Regarding `CC(=O)CC(c1ccc([N+](=O)[O-])cc1)c1c(O)c2ccccc2oc1=O` (centres undefined), the inhibition was inactive: 0.581%.

As to `COc1ccc2[nH]c(C)c(CN3CCC(C)CC3)c(=O)c2c1`, the inhibition is inactive: 7.55%.

In the case of `Cc1ccccc1C(=O)NCC(=O)O`, the inhibition is inactive: -15.9%.

For `O=C(CCCN1CCC(O)(c2ccc(Cl)cc2)CC1)c1ccc(F)cc1`, the inhibition was inactive: 4.86%.

`O=C(NC(=S)Nc1nc(-c2ccccc2)cs1)c1ccco1`: the inhibition is inactive: -25.2%.

`C=C(C)COc1ccc(-c2n[nH]c(C)c2-c2ccc(OC)cc2)c(O)c1`: the inhibition was inactive: 17.8%.
